PubChem BioAssay AID1259308 – NCATS, 2017

- Assay: 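Knock-downs that increase output of a recombinant reporter protein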 (primary screen)
- Cells: human HEK293 embryonic kidney cells stably expressing firefly luciferase (HEK-CMV-Luc2-Hygro)
- Knock-down reagent: single siRNA against human genes, 0.8 pmol siRNA per well
- Time to read-out: 72 h
- Detection: 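Luciferase light (ONE-Glo) measured on one replicate plate set and viability (CellTiter-Glo) on the other, scaled to a negative control siRNA, with robust z-scores and luciferase per cell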
- Scale: total luciferase, z-score: higher = more reporter protein produced
- Call rule: 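Active when the median/MAD z-score for overall luciferase is greater than 3; a gene was taken forward for validation with new siRNAs if at least two of its three siRNAs passed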
- Meaning of the calls: active = raised luciferase; inactive = no rise
In all, the deposit lists about 59,000 reagents; this is a part drawn at random. In the full data, about 1,510 (2.6%) are marked active. 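Calls use total luciferase alone and ignore viability, so some active siRNAs may act by altering cell number.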 Reagents against one gene are numbered here. Further read-outs or replicates are left out here.

{"Target gene":"CHPT1","siRNA no.":1,"total luciferase, z-score":-0.781,"Call":"inactive"}
{"Target gene":"CHPT1","siRNA no.":2,"total luciferase, z-score":-0.182,"Call":"inactive"}
{"Target gene":"CHPT1","siRNA no.":3,"total luciferase, z-score":0.673,"Call":"inactive"}
{"Target gene":"RPL26L1","siRNA no.":1,"total luciferase, z-score":-2.25,"Call":"inactive"}
{"Target gene":"RPL26L1","siRNA no.":2,"total luciferase, z-score":-1.06,"Call":"inactive"}
{"Target gene":"RPL26L1","siRNA no.":3,"total luciferase, z-score":0.699,"Call":"inactive"}
{"Target gene":"NT5M","siRNA no.":1,"total luciferase, z-score":0.474,"Call":"inactive"}
{"Target gene":"NT5M","siRNA no.":2,"total luciferase, z-score":1.53,"Call":"inactive"}
{"Target gene":"NT5M","siRNA no.":3,"total luciferase, z-score":1.17,"Call":"inactive"}
{"Target gene":"PECAM1","siRNA no.":1,"total luciferase, z-score":-2.13,"Call":"inactive"}
{"Target gene":"PECAM1","siRNA no.":2,"total luciferase, z-score":0.57,"Call":"inactive"}
{"Target gene":"PECAM1","siRNA no.":3,"total luciferase, z-score":-0.774,"Call":"inactive"}
{"Target gene":"TRMT6","siRNA no.":1,"total luciferase, z-score":1.84,"Call":"inactive"}
{"Target gene":"TRMT6","siRNA no.":2,"total luciferase, z-score":1.1,"Call":"inactive"}
{"Target gene":"TRMT6","siRNA no.":3,"total luciferase, z-score":-0.278,"Call":"inactive"}
{"Target gene":"ALG10B","siRNA no.":1,"total luciferase, z-score":0.213,"Call":"inactive"}
{"Target gene":"ALG10B","siRNA no.":2,"total luciferase, z-score":-0.261,"Call":"inactive"}
{"Target gene":"ALG10B","siRNA no.":3,"total luciferase, z-score":0.45,"Call":"inactive"}
{"Target gene":"CMTR1","siRNA no.":1,"total luciferase, z-score":-0.162,"Call":"inactive"}
{"Target gene":"CMTR1","siRNA no.":2,"total luciferase, z-score":0.135,"Call":"inactive"}
{"Target gene":"CMTR1","siRNA no.":3,"total luciferase, z-score":-0.583,"Call":"inactive"}
{"Target gene":"AQR","siRNA no.":1,"total luciferase, z-score":1.86,"Call":"inactive"}
{"Target gene":"AQR","siRNA no.":2,"total luciferase, z-score":3,"Call":"inactive"}
{"Target gene":"AQR","siRNA no.":3,"total luciferase, z-score":0.254,"Call":"inactive"}

2 entries already listed, sorted by “total luciferase, z-score”, highest first.
{"Target gene":"AQR","siRNA no.":2,"total luciferase, z-score":3,"Call":"inactive"}
{"Target gene":"AQR","siRNA no.":1,"total luciferase, z-score":1.86,"Call":"inactive"}

Continued:
{"Target gene":"HOXC8","siRNA no.":1,"total luciferase, z-score":-1.34,"Call":"inactive"}
{"Target gene":"HOXC8","siRNA no.":2,"total luciferase, z-score":-0.81,"Call":"inactive"}
{"Target gene":"HOXC8","siRNA no.":3,"total luciferase, z-score":-1.53,"Call":"inactive"}
{"Target gene":"SLITRK2","siRNA no.":1,"total luciferase, z-score":-0.322,"Call":"inactive"}
{"Target gene":"SLITRK2","siRNA no.":2,"total luciferase, z-score":0.112,"Call":"inactive"}
{"Target gene":"SLITRK2","siRNA no.":3,"total luciferase, z-score":0.58,"Call":"inactive"}
{"Target gene":"VAT1L","siRNA no.":1,"total luciferase, z-score":-2.03,"Call":"inactive"}
{"Target gene":"VAT1L","siRNA no.":2,"total luciferase, z-score":-0.748,"Call":"inactive"}
{"Target gene":"VAT1L","siRNA no.":3,"total luciferase, z-score":0.302,"Call":"inactive"}
{"Target gene":"TMEM200B","siRNA no.":1,"total luciferase, z-score":4.33,"Call":"active"}
{"Target gene":"TMEM200B","siRNA no.":2,"total luciferase, z-score":0.693,"Call":"inactive"}
{"Target gene":"TMEM200B","siRNA no.":3,"total luciferase, z-score":-1.43,"Call":"inactive"}
{"Target gene":"ERG28","siRNA no.":1,"total luciferase, z-score":0.745,"Call":"inactive"}
{"Target gene":"ERG28","siRNA no.":2,"total luciferase, z-score":-0.157,"Call":"inactive"}
{"Target gene":"ERG28","siRNA no.":3,"total luciferase, z-score":-0.164,"Call":"inactive"}
{"Target gene":"SERPINA10","siRNA no.":1,"total luciferase, z-score":-1.25,"Call":"inactive"}
{"Target gene":"SERPINA10","siRNA no.":2,"total luciferase, z-score":0.00174,"Call":"inactive"}
{"Target gene":"SERPINA10","siRNA no.":3,"total luciferase, z-score":-0.119,"Call":"inactive"}
